Our source for the binding values is article PMC12541299.

Sequences of proteins named here, by UniProt entry; tags and fusion partners are left off.
UniProt Q14160: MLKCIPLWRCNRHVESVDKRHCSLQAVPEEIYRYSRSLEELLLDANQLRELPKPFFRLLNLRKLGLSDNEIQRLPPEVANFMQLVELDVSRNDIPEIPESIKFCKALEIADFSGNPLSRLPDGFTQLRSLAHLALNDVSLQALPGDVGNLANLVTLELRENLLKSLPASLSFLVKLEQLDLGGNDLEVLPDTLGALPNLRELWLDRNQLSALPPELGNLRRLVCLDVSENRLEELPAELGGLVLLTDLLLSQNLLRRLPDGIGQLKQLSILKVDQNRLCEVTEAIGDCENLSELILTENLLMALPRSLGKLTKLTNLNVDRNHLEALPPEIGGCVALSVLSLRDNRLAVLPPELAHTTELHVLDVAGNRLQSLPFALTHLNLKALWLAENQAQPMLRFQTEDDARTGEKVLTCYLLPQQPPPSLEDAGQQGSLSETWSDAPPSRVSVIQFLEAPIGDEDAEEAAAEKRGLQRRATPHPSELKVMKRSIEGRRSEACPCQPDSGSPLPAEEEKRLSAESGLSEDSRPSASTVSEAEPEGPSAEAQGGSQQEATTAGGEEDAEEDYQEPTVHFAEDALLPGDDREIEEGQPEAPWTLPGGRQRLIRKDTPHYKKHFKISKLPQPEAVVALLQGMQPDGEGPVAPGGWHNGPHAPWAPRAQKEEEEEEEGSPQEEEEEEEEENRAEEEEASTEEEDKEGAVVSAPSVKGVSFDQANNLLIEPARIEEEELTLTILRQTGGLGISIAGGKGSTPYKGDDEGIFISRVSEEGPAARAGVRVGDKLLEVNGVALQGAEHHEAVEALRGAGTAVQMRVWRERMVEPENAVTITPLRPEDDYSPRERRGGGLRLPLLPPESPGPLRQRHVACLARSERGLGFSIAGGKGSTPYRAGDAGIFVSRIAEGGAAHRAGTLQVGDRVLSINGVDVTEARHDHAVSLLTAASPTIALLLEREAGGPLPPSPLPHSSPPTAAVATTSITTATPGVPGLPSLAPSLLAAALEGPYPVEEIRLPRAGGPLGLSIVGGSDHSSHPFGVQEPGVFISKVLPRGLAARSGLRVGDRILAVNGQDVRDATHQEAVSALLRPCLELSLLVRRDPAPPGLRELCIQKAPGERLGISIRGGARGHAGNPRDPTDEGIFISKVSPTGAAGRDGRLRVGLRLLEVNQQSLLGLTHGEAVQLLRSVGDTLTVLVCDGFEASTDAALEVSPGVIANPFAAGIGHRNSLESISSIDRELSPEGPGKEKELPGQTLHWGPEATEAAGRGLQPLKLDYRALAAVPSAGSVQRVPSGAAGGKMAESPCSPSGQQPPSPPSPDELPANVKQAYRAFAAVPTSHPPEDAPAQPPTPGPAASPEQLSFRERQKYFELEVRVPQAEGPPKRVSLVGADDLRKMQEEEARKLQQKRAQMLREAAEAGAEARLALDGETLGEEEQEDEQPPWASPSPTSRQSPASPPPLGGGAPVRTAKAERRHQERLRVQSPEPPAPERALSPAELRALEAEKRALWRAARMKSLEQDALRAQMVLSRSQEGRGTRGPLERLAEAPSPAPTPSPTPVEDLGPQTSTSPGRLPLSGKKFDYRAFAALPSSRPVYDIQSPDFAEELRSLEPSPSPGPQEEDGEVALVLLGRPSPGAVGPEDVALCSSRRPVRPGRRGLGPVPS

The target of this test is KRAS^Q61L (as used in the immunoprecipitation) (human) (UniProt P01116). The test is described as follows: co-IP; immunoprecipitation to validate the TurboID hits; cells, bait and conditions not told (Supplementary Fig. S2G and S2H).

Results are given in words; binding and its absence hold for the method and conditions named. In cells and extracts the contact can be indirect.

For SCRIB (from UniProt Q14160 1-1655), the binding result is “no binding”.
